# PubChem BioAssay AID624297 (National Center for Advancing Translational Sciences (NCATS), 2012)
# Among all 340,000 compounds or so, about 6,200 (1.8%) were called active. Inconclusive results, whose numbers are uncertain, are shown with a selection of clear calls. Calls come from the whole dose curve; as a rule, active = well fitted activation curve with a large enough effect; inconclusive = small, poorly fitted or top-dose-only effect; inactive = no such curve, though single readings can be large or run the other way. A potency beside an inconclusive call is a rough fit, not a confirmed value.
# Assay: A quantitative high throughput screen for small molecules that induce DNA re-replication in SW480 colon adenocarcinoma cells. For re-replication activation: % of control where 0% means no effect. Note: nearly all actives have a fitted effect of over 55% in size.
# Conditions: Hoechst DNA content imaging, 48 h; re-replication activation: at 46.1 µM (top of the series) unless noted
# How it was run: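 First, 250 cells per well were seeded. Next, compound or vehicle (23 nL) was pinned in, plates sat 48 hr at 37 C. Finally Hoechst was added for 40 min before fluorescence scanning.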
# Potency is the fitted concentration of half-maximal effect.
SMILES,re-replication activation,Potency
COc1ccc(NC(=O)CN2C(=O)NC(C)(c3ccc(C)cc3)C2=O)cn1 (stereo unspecified),inactive: -4.95%,–
CCOc1cc(/C=C2\SC(=NC)N(C)C2=O)cc(Cl)c1OC(C)=O,–,"inconclusive: 13 µM [activator, partial curve]"
CCOC(=O)c1ccc(Nc2c(CC)c(C)nc3ncnn23)cc1,inactive: 1.17%,–
CCOC(=O)N1CCN(C(=O)C2CCN(S(=O)(=O)c3ccc(OCC)cc3)CC2)CC1,–,"inconclusive: 20.6 µM [activator, single point]"
Cc1ccc(CN2CCC(c3cc(-c4cccs4)n[nH]3)CC2)cc1,inactive: 10.4%,–
O=C(O)C(Nc1nc(C(F)(F)F)nc2ccccc12)c1ccccc1 (stereo unspecified),–,"inconclusive: 32.6 µM [activator, single point]"
O=C(Cn1nc(-c2ccccc2Cl)ccc1=O)Nc1ccccc1-c1ccccc1,–,"inconclusive: 5.17 µM [activator, partial curve, poor fit]"
COc1ccc(CN2C(=O)C(CC(C)C)Nc3ncnc(N4CCN(c5ccccc5)CC4)c32)cc1 (stereo unspecified),–,"inconclusive: 0.731 µM [activator, full curve, poor fit]"
O=C(N/N=C/c1ccccc1)c1cc[n+]([O-])cc1,–,"inconclusive: 12.6 µM [activator, single point]"
CCCS(=O)(=O)NCc1cn2cccc(C)c2n1,–,active: 10.3 µM
Cc1cccc(NC(=O)C(C)Sc2nnc(-c3cccnc3)o2)c1 (stereo unspecified),inconclusive: 31.2% [activator],–
COc1cccc(C(=O)NNc2nc(C)cc(C)n2)c1,–,active: 0.517 µM
C=CCn1c(NCCO)nc2c1c(=O)n(C)c(=O)n2C,inactive: -2.83%,–
Cc1cc(C)n(-c2nnc(SCC(=O)NC3CCCC3)c3ccccc23)n1,inactive: 0.783%,–
CCN1C(=O)C(O)(CC(=O)/C=C/C=C/c2ccccc2)c2ccccc21 (stereo unspecified),inactive: -4.29%,–
N#C/C(=C/c1cn(-c2ccccc2)nc1-c1cccc(OCc2ccccc2)c1)C(=O)NCCCn1ccnc1,–,"inconclusive: 20.6 µM [activator, single point]"
O=C(c1cc(-c2ccc3c(c2)OCO3)on1)N1CCOCC1,inactive: -8.33%,–
CCc1ccccc1N1C(=O)C2CC=CCC2C1=O (stereo unspecified),inactive: -0.857%,–
CCN(CC(=O)Nc1cc(Cl)ccc1C)C(=O)C1COc2ccccc2O1 (stereo unspecified),–,"inconclusive: 32.6 µM [activator, partial curve, poor fit]"
CN(C)CCCN(C(=O)c1cccc(N2C(=O)CCC2=O)c1)c1nc2cc3c(cc2s1)OCO3,–,"inconclusive: 6.51 µM [activator, partial curve, poor fit]"
O=C(CSc1n[nH]c(-c2ccncc2)n1)c1cccc([N+](=O)[O-])c1,–,"inconclusive: 20.6 µM [activator, single point]"

# Some of the entries above in a different format.
SMILES	re-replication activation	Potency
O=C(Cn1nc(-c2ccccc2Cl)ccc1=O)Nc1ccccc1-c1ccccc1	–	inconclusive: 5.17 µM [activator, partial curve, poor fit]
CCN1C(=O)C(O)(CC(=O)/C=C/C=C/c2ccccc2)c2ccccc21 (stereo unspecified)	inactive: -4.29%	–
